Measured values: paper PMC11852716, “c-di-GMP phosphodiesterase ProE interacts with quorum sensing protein PqsE to promote pyocyanin production in Pseudomonas aeruginosa” (mSphere, 2025)
These are yes or no findings as the source states them, for the method shown. Binding calls can cover weak binding; strength is not graded here. Where a sequence is shown, tags or fusion partners need not be part of it.

Sequences of proteins named here, by UniProt entry; tags and fusion partners are left off. A change or cut given only in a name is not applied to a line headed by its entry.
UniProt Q9HTQ9: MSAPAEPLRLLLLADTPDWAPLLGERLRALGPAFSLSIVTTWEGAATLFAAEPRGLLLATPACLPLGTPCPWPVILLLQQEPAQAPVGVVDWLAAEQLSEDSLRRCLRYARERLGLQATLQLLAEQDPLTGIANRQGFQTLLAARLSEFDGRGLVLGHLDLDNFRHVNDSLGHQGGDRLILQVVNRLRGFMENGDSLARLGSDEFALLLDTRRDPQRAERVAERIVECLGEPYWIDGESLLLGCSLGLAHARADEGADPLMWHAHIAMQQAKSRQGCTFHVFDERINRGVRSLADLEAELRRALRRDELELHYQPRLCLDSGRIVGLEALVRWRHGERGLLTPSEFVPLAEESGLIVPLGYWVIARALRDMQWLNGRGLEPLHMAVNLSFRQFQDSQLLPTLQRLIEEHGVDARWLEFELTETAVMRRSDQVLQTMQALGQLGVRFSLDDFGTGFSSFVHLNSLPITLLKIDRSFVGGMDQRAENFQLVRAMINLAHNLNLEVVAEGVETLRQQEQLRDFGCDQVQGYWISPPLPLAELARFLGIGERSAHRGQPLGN

Molecular target: ProE, bacterial two-hybrid fusion (Pseudomonas aeruginosa) (UniProt Q9HTQ9)
Test: two-hybrid; BacterioMatch II bacterial two-hybrid in E. coli XL1-Blue MRF' Kan; growth on M9+ His-deficient plate with 2.5 mM 3-AT, 37°C overnight

B1: LasI, bacterial two-hybrid fusion (protein, UniProt P33883 1-201)
chain: MIVQIGRREEFDKKLLGEMHKLRAQVFKERKGWDVSVIDEMEIDGYDALSPYYMLIQEDTPEAQVFGCWRILDTTGPYMLKNTFPELLHGKEAPCSPHIWELSRFAINSGQKGSLGFSDCTLEAMRALARYSLQNDIQTLVTVTTVGVEKMMIRAGLDVSRFGPHLKIGIERAVALRIELNAKTQIALYGGVLVEQRLAVS
  binding: binds weakly
